The supplement of paper PMC10849652
Some of the results follow.

Sequences of proteins named here, by UniProt entry; tags and fusion partners are left off. A change or cut given only in a name is not applied to a line headed by its entry.
UniProt Q8TC12: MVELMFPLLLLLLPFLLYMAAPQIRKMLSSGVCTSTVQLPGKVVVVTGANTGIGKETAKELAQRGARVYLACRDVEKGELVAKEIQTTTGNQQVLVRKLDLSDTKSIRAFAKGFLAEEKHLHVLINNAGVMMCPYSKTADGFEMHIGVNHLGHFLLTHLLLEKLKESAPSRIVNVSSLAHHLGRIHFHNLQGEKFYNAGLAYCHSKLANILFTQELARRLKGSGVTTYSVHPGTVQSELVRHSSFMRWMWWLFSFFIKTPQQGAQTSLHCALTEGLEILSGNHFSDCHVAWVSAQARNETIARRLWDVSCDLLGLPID
UniProt O15258: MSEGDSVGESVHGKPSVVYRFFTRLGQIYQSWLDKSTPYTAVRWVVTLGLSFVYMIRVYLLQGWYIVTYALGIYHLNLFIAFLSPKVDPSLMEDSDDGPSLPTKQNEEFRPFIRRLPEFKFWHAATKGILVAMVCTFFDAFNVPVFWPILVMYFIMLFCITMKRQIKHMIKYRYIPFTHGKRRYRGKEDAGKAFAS
UniProt Q9Y580: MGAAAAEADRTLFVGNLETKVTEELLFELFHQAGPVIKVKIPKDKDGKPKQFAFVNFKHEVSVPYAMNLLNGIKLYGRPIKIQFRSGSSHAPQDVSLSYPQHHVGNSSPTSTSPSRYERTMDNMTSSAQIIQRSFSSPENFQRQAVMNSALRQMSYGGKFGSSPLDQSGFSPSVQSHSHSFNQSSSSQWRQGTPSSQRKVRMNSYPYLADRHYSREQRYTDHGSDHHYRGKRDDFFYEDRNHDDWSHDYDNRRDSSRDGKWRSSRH
UniProt P53805: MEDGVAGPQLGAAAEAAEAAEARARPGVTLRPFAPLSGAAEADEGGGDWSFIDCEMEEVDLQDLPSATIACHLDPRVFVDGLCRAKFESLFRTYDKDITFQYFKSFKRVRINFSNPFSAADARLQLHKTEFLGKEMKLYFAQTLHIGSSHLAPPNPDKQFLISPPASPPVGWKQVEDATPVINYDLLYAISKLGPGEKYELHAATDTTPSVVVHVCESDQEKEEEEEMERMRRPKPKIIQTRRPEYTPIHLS
UniProt Q9UKL0, whole entry, looked up: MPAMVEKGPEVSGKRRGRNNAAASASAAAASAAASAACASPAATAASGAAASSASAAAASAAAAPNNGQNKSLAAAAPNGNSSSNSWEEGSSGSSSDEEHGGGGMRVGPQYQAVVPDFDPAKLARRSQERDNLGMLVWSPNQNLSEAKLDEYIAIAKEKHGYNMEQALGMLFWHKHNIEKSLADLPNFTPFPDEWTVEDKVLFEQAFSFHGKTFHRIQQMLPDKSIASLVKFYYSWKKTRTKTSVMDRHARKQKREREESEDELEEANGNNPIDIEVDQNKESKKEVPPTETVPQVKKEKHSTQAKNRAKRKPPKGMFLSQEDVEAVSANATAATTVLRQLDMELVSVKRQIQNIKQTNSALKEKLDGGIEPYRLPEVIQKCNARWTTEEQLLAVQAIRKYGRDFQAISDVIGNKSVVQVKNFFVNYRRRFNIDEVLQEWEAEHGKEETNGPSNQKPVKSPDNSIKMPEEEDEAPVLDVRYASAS
UniProt Q9BWE0: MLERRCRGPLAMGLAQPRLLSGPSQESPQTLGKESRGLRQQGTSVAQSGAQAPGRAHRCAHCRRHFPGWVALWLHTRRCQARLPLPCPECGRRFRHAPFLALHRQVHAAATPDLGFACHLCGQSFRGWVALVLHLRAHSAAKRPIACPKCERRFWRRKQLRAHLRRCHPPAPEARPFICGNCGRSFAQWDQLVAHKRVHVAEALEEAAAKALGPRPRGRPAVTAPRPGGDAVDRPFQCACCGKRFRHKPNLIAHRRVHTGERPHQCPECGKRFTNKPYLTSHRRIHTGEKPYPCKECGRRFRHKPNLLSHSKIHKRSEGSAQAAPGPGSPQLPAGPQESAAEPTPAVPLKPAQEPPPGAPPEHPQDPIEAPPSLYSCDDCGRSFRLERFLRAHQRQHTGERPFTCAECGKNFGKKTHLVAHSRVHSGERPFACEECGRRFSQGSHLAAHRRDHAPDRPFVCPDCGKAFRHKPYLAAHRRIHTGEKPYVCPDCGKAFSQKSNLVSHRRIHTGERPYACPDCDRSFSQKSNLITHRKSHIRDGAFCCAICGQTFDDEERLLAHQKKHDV
UniProt P40938, whole entry, looked up: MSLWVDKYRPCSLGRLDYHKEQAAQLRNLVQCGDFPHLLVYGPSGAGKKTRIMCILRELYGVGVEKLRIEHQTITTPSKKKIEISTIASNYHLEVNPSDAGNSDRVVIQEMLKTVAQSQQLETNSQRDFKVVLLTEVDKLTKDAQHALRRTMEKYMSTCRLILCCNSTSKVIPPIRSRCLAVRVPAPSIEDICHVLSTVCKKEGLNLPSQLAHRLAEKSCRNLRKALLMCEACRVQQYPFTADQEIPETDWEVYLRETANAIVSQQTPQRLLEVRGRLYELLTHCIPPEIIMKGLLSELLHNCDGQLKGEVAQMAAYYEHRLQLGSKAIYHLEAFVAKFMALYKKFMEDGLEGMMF
UniProt Q8TEU7: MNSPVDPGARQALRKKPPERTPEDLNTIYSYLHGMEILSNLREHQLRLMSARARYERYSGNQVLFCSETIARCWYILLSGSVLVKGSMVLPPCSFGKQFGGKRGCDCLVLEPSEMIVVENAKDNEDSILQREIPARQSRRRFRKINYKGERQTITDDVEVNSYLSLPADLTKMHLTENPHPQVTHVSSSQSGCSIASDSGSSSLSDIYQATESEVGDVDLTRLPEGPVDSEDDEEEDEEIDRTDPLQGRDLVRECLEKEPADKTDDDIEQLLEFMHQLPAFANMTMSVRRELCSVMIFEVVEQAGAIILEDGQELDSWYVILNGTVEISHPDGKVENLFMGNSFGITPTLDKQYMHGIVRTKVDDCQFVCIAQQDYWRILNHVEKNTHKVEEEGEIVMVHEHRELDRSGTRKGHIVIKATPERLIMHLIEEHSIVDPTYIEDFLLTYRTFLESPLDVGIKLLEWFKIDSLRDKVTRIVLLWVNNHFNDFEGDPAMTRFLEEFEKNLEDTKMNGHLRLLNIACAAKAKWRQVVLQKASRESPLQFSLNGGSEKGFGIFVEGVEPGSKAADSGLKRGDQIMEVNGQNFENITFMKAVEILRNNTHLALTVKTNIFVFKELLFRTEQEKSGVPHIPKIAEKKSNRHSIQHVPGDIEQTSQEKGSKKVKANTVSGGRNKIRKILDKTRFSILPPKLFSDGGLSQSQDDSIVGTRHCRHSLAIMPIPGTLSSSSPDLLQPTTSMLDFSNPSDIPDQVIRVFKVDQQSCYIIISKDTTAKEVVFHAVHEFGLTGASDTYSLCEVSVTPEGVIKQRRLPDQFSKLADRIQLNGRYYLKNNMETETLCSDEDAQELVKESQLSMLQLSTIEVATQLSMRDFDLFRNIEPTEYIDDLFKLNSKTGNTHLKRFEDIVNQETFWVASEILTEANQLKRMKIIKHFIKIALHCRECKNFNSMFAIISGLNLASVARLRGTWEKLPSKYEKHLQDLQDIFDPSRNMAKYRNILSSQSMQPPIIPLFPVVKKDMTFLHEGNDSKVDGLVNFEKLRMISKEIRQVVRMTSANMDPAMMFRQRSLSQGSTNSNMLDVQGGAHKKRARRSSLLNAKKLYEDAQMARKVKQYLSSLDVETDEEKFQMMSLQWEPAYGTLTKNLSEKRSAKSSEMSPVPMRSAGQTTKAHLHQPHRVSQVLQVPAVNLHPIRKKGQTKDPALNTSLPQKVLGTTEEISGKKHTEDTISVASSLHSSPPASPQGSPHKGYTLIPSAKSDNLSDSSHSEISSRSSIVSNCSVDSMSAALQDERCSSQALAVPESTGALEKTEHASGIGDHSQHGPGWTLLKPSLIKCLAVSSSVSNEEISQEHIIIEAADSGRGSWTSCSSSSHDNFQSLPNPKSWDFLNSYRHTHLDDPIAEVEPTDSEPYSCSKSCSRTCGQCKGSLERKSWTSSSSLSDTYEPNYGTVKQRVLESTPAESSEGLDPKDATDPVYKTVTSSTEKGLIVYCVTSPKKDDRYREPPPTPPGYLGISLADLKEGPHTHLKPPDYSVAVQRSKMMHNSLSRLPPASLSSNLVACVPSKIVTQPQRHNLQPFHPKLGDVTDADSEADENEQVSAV
UniProt Q9HBH5: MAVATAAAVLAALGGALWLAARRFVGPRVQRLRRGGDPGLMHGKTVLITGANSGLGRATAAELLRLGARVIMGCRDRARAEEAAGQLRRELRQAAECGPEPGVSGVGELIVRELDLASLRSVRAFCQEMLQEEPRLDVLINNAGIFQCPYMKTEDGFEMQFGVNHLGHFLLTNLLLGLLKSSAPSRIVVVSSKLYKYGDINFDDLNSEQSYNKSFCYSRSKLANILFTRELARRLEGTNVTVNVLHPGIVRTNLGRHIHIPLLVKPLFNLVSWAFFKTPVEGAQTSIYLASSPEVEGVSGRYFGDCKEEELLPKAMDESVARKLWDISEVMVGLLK
UniProt P42696: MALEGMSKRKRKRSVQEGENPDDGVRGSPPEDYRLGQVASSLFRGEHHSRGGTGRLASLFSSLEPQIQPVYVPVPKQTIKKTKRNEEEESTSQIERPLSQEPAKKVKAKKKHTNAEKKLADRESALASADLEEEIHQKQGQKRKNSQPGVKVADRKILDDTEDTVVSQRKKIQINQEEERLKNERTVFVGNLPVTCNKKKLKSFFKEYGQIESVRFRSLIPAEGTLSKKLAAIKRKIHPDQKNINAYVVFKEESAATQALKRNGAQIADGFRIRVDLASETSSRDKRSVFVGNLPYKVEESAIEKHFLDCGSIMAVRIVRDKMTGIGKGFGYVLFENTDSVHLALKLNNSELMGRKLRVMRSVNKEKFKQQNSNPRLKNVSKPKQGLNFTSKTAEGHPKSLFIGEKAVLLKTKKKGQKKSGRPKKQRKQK
UniProt Q15293: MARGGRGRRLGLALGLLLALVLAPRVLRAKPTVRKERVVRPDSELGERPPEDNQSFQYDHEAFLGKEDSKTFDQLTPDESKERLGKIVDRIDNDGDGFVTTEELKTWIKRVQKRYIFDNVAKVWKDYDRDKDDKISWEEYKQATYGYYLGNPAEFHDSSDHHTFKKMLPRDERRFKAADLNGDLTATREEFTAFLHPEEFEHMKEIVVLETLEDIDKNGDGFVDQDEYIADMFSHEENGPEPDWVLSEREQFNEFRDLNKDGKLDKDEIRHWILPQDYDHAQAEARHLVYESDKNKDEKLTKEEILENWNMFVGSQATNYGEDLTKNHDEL
UniProt Q96HR9: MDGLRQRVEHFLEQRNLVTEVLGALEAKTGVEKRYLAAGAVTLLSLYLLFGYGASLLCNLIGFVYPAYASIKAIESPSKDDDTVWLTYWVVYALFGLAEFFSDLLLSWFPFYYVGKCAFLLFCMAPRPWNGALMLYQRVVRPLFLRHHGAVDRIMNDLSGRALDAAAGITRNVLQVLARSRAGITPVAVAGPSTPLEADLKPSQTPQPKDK
UniProt O43665: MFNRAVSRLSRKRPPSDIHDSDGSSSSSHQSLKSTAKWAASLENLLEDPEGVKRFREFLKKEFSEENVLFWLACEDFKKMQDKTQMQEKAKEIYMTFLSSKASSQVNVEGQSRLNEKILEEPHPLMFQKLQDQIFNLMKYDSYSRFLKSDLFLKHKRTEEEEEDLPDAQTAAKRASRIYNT
UniProt Q9P2N5: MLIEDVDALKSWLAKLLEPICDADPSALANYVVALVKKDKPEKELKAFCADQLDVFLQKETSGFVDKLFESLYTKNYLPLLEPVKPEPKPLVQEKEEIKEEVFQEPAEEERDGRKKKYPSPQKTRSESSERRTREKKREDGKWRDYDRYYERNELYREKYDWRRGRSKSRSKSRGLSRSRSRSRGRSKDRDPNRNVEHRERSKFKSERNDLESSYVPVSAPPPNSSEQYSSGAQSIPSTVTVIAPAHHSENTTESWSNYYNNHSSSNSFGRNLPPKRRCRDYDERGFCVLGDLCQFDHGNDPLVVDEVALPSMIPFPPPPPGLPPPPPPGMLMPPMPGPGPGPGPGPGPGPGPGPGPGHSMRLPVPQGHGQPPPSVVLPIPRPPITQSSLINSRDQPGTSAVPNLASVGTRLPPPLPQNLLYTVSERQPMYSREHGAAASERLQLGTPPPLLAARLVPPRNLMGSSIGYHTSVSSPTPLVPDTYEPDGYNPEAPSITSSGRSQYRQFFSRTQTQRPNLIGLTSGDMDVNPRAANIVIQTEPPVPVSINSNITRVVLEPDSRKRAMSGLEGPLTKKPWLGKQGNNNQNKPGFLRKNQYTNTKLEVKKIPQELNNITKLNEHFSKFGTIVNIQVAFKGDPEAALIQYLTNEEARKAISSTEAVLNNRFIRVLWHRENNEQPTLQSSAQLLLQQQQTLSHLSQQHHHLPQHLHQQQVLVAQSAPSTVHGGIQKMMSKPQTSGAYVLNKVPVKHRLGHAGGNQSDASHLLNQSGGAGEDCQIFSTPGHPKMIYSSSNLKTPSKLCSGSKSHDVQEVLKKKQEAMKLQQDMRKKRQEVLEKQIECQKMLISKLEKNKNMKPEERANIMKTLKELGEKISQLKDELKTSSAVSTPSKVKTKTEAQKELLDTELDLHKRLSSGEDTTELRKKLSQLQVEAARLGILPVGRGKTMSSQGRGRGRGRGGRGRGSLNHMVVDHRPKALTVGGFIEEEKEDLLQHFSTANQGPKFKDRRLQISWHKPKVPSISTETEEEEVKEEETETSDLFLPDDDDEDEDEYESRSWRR

Assays:
Test in all cases: log2 fold change, soluble protein after heating vs DMSO (PISA); higher = thermal stabilisation; K562 lysate, 10 uM; active = over 0.2 and 3.5 SD of the protein, either way, in both replicates (recomputed)
nilotinib = compound: Cc1cn(-c2cc(NC(=O)c3ccc(C)c(Nc4nccc(-c5cccnc5)n4)c3)cc(C(F)(F)F)c2)cn1 [nilotinib]
How it was run: (§1)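 To prepare the extract, K562 pellets were dounce-homogenised in PBS pH 7.4 with 1 mM MgCl2, giving crude material at 1 mg/mL protein. This was treated with 10 μM compound for 30 min, then heated in aliquots for 3 min over 48°C-58°C before pooling and addition of NP-40 to 0.5% at 4°C. Centrifugation at 21,000xg for 90 min left soluble protein in the supernatant, which TMTpro 16plex LC-MS/MS quantified with equalised channel sums. Results are log-two fold changes in thermal stability compared with solvent controls, from duplicates.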

[1] = compound: Cc1nc(Nc2n[nH]c3c2CN(C(=O)N[C@H](CN(C)C)c2ccccc2)C3(C)C)c2sccc2n1
How it was run: as §1

dasatinib = compound: Cc1nc(Nc2ncc(C(=O)Nc3c(C)cccc3Cl)s2)cc(N2CCN(CCO)CC2)n1 [dasatinib]
How it was run: as §1

[2] = compound: Cc1ncc(-c2ccnc(Nc3ccc(S(C)(=O)=O)cc3)n2)n1C(C)C
How it was run: as §1

[3] = compound: Cn1cc(-c2ccc3c(c2)CCN3C(=O)Cc2cccc(C(F)(F)F)c2)c2c(N)ncnc21
How it was run: as §1

quisinostat = compound: Cn1cc(CNCC2CCN(c3ncc(C(=O)NO)cn3)CC2)c2ccccc21 [quisinostat]
How it was run: as §1

tipifarnib = compound: Cn1cncc1[C@@](N)(c1ccc(Cl)cc1)c1ccc2c(c1)c(-c1cccc(Cl)c1)cc(=O)n2C [tipifarnib]
How it was run: as §1

[4] = compound: NC(=O)Nc1cc(-c2cccc(F)c2)sc1C(=O)N[C@H]1CCCNC1
How it was run: as §1

[5] = compound: NC(=O)c1cnc(N[C@@H]2CCCC[C@@H]2N)nc1Nc1cccc(-n2nccn2)c1
How it was run: as §1

[6] = compound: NC1(c2ccc(-c3nc4ccn5c(=O)[nH]nc5c4cc3-c3ccccc3)cc2)CCC1
How it was run: as §1

[7] = compound: NCC(=O)Nc1ccc(-n2nc(C(F)(F)F)cc2-c2ccc3c(ccc4ccccc43)c2)cc1
How it was run: as §1

vorinostat = compound: O=C(CCCCCCC(=O)Nc1ccccc1)NO [vorinostat]
How it was run: as §1

silmitasertib = compound: O=C(O)c1ccc2c(c1)nc(Nc1cccc(Cl)c1)c1ccncc12 [silmitasertib]
How it was run: as §1

[8] = compound: O=C1NC(=O)C(c2cnc3ccccn23)=C1c1cn2c3c(cc(F)cc13)CN(C(=O)N1CCCCC1)CC2
How it was run: as §1

entospletinib = compound: c1cn2cc(-c3ccc4cn[nH]c4c3)nc(Nc3ccc(N4CCOCC4)cc3)c2n1 [entospletinib]
How it was run: as §1

| Target | log2 fold change (nilotinib) | log2 fold change [1] | log2 fold change (dasatinib) | log2 fold change [2] | log2 fold change [3] | log2 fold change (quisinostat) | log2 fold change (tipifarnib) | log2 fold change [4] | log2 fold change [5] | log2 fold change [6] | log2 fold change [7] | log2 fold change (vorinostat) | log2 fold change (silmitasertib) | log2 fold change [8] | log2 fold change (entospletinib) |
| --- | --- | --- | --- | --- | --- | --- | --- | --- | --- | --- | --- | --- | --- | --- | --- |
| RDH11 (UniProt Q8TC12) | inactive: 0.034 | inactive: -0.05 | inactive: -0.075 | inactive: -0.045 | inactive: -0.021 | inactive: 0.038 | inactive: -0.038 | inactive: 0.103 | inactive: 0.034 | inactive: -0.011 | inactive: 0.008 | inactive: 0.038 | inactive: 0.022 | inactive: -0.047 | inactive: 0.014 |
| RBM8A (UniProt Q9Y5S9) | inactive: -0.005 | inactive: 0.025 | inactive: 0.023 | inactive: 0.004 | inactive: 0.067 | inactive: 0.187 | inactive: 0.051 | inactive: -0.016 | inactive: 0 | inactive: 0.108 | inactive: -0.113 | inactive: 0.103 | inactive: 0.042 | inactive: -0.046 | inactive: -0.019 |
| RER1 (UniProt O15258) | inactive: 0.042 | inactive: -0.041 | inactive: 0.023 | inactive: -0.022 | inactive: -0.037 | inactive: 0.013 | inactive: 0.005 | inactive: 0.018 | inactive: -0.021 | inactive: 0.017 | inactive: -0.022 | inactive: 0.107 | inactive: 0.003 | inactive: 0.056 | inactive: 0.002 |
| RBM7 (UniProt Q9Y580) | inactive: 0.05 | inactive: 0.006 | inactive: -0.047 | inactive: -0.03 | inactive: 0.035 | inactive: -0.036 | inactive: 0.023 | inactive: 0.058 | inactive: -0.003 | inactive: 0.022 | inactive: -0.025 | inactive: -0.163 | inactive: 0.042 | inactive: -0.076 | inactive: -0.082 |
| RCAN1 (UniProt P53805) | active: -0.457 | inactive: 0.008 | inactive: 0.023 | inactive: -0.055 | inactive: 0.038 | inactive: -0.217 | inactive: 0.131 | inactive: 0.117 | inactive: 0.088 | inactive: 0.036 | inactive: 0.082 | inactive: -0.197 | inactive: 0.02 | inactive: 0.02 | inactive: 0.031 |
| RAVER1 (UniProt E9PAU2) | inactive: -0.061 | inactive: 0.051 | inactive: 0.035 | inactive: 0.06 | inactive: -0.043 | inactive: -0.069 | inactive: -0.043 | inactive: 0.005 | inactive: 0.002 | inactive: 0.052 | inactive: 0.085 | inactive: -0.021 | inactive: -0.026 | inactive: -0.016 | inactive: -0.023 |
| RCOR1 (UniProt Q9UKL0) | inactive: -0.024 | inactive: -0.006 | inactive: -0.054 | inactive: 0.009 | inactive: 0.003 | inactive: 0.015 | inactive: -0.022 | inactive: 0.043 | inactive: -0.015 | inactive: 0.099 | inactive: 0.034 | inactive: -0.184 | inactive: -0.014 | inactive: -0.011 | inactive: 0.009 |
| RBM10 isoform 5 (UniProt P98175) | inactive: -0.019 | inactive: 0 | inactive: 0.008 | inactive: 0.01 | inactive: -0.012 | inactive: 0.02 | inactive: -0.02 | inactive: -0.029 | inactive: 0.013 | inactive: 0.017 | inactive: 0.039 | inactive: 0.136 | inactive: -0.038 | inactive: -0.074 | inactive: -0.009 |
| RENBP (UniProt P51606) | inactive: -0.023 | inactive: 0.023 | inactive: 0.077 | inactive: -0.002 | inactive: 0.004 | inactive: 0.023 | inactive: -0.006 | inactive: 0.017 | inactive: -0.008 | inactive: 0.04 | inactive: -0.04 | inactive: 0.04 | inactive: -0.078 | inactive: -0.045 | inactive: 0 |
| REPIN1 isoform 4 (UniProt Q9BWE0) | inactive: 0.034 | inactive: 0.013 | inactive: 0.055 | inactive: -0.023 | inactive: -0.035 | inactive: -0.021 | inactive: 0.007 | inactive: 0.043 | inactive: 0.005 | inactive: -0.013 | inactive: 0.027 | inactive: 0.05 | inactive: -0.106 | inactive: -0.017 | inactive: -0.03 |
| RFC3 (UniProt P40938) | inactive: 0 | inactive: -0.05 | inactive: -0.036 | inactive: 0.034 | inactive: 0.021 | inactive: -0.081 | inactive: 0.002 | inactive: 0.094 | inactive: 0.01 | inactive: -0.006 | inactive: -0.01 | active: -0.365 | inactive: 0.035 | inactive: 0.006 | inactive: 0.018 |
| RAPGEF6 isoform 4 (UniProt Q8TEU7) | inactive: -0.018 | inactive: -0.022 | inactive: -0.018 | inactive: -0.075 | inactive: 0.031 | inactive: -0.037 | inactive: -0.08 | inactive: 0.01 | inactive: 0.058 | inactive: -0.008 | inactive: -0.012 | inactive: -0.195 | inactive: 0.011 | inactive: 0 | inactive: -0.035 |
| RDH14 (UniProt Q9HBH5) | inactive: 0.008 | inactive: -0.006 | inactive: 0.023 | inactive: 0.004 | inactive: 0.009 | inactive: -0.016 | inactive: 0.065 | inactive: -0.011 | inactive: -0.077 | inactive: 0.048 | inactive: -0.072 | active: -0.318 | inactive: 0.044 | inactive: 0.004 | inactive: 0.026 |
| RBM34 (UniProt P42696) | inactive: 0.011 | inactive: 0.014 | inactive: 0.04 | inactive: -0.005 | inactive: -0.019 | inactive: -0.035 | inactive: 0.041 | inactive: 0.033 | inactive: 0.004 | inactive: -0.014 | inactive: -0.033 | inactive: 0.05 | inactive: 0.035 | inactive: 0.014 | inactive: 0.029 |
| RCN1 (UniProt Q15293) | inactive: -0.033 | inactive: 0.012 | inactive: 0.071 | inactive: 0.023 | inactive: -0.036 | inactive: 0.148 | inactive: -0.001 | inactive: 0.046 | inactive: -0.001 | inactive: -0.019 | inactive: -0.006 | inactive: 0.128 | inactive: 0.003 | inactive: -0.048 | inactive: 0.029 |
| REEP6 (UniProt Q96HR9) | inactive: 0.058 | inactive: 0.1 | inactive: 0.204 | inactive: 0.041 | inactive: 0.009 | inactive: -0.072 | inactive: 0.001 | inactive: -0.03 | inactive: 0.155 | inactive: -0.023 | inactive: -0.031 | inactive: 0.068 | inactive: -0.083 | inactive: -0.028 | inactive: -0.059 |
| RGS10 (UniProt O43665) | inactive: 0.067 | inactive: -0.015 | inactive: 0.037 | inactive: 0.002 | inactive: 0.001 | inactive: -0.005 | inactive: 0.038 | inactive: 0.013 | inactive: -0.026 | inactive: 0.009 | inactive: 0.023 | inactive: 0.151 | inactive: -0.058 | inactive: 0.004 | inactive: 0.007 |
| RBM27 (UniProt Q9P2N5) | inactive: -0.022 | inactive: 0.007 | inactive: -0.035 | inactive: 0.03 | inactive: 0.035 | inactive: 0.045 | inactive: -0.015 | inactive: -0.077 | inactive: -0.008 | inactive: 0.047 | inactive: 0.075 | inactive: -0.126 | inactive: -0.066 | inactive: -0.054 | inactive: -0.024 |
| RB1 (UniProt P06400) | inactive: -0.005 | inactive: 0.012 | inactive: 0 | inactive: -0.021 | inactive: 0.016 | inactive: -0.001 | inactive: 0.004 | inactive: -0.031 | inactive: 0.014 | inactive: 0.025 | inactive: -0.002 | inactive: -0.025 | inactive: 0.004 | inactive: -0.063 | inactive: -0.003 |
| RELN (UniProt P78509) | inactive: -0.086 | inactive: -0.039 | inactive: -0.005 | inactive: -0.047 | inactive: 0.002 | inactive: -0.005 | inactive: -0.032 | inactive: 0.042 | inactive: -0.101 | inactive: 0.013 | inactive: 0.016 | inactive: 0.088 | inactive: -0.049 | inactive: 0.006 | inactive: -0.037 |
| RDH13 (UniProt Q8NBN7) | inactive: 0.02 | inactive: -0.019 | inactive: -0.037 | inactive: -0.019 | inactive: 0.071 | inactive: -0.02 | inactive: -0.054 | inactive: 0.088 | inactive: 0.041 | inactive: -0.02 | inactive: -0.045 | inactive: 0.117 | inactive: 0.104 | inactive: -0.045 | inactive: 0.034 |

Part of the list above, limited to log2 fold change (nilotinib).
Target	log2 fold change (nilotinib)
RBM7 (UniProt Q9Y580)	inactive: 0.05
RDH14 (UniProt Q9HBH5)	inactive: 0.008

Retrieved one by one from the list above (2):

| Target | log2 fold change (nilotinib) | log2 fold change [1] | log2 fold change (dasatinib) | log2 fold change [2] | log2 fold change [3] | log2 fold change (quisinostat) | log2 fold change (tipifarnib) | log2 fold change [4] | log2 fold change [5] | log2 fold change [6] | log2 fold change [7] | log2 fold change (vorinostat) | log2 fold change (silmitasertib) | log2 fold change [8] | log2 fold change (entospletinib) |
| --- | --- | --- | --- | --- | --- | --- | --- | --- | --- | --- | --- | --- | --- | --- | --- |
| RFC3 (UniProt P40938) | inactive: 0 | inactive: -0.05 | inactive: -0.036 | inactive: 0.034 | inactive: 0.021 | inactive: -0.081 | inactive: 0.002 | inactive: 0.094 | inactive: 0.01 | inactive: -0.006 | inactive: -0.01 | active: -0.365 | inactive: 0.035 | inactive: 0.006 | inactive: 0.018 |
| RCOR1 (UniProt Q9UKL0) | inactive: -0.024 | inactive: -0.006 | inactive: -0.054 | inactive: 0.009 | inactive: 0.003 | inactive: 0.015 | inactive: -0.022 | inactive: 0.043 | inactive: -0.015 | inactive: 0.099 | inactive: 0.034 | inactive: -0.184 | inactive: -0.014 | inactive: -0.011 | inactive: 0.009 |
